According to PMC9614494:
These are yes or no findings as the source states them, for the method shown. Binding calls can cover weak binding; strength is not graded here.

Biological target: T1, recombinant GBP of the cross-linking experiment (Arabidopsis thaliana) (UniProt Q9LU39)
T1 sequence: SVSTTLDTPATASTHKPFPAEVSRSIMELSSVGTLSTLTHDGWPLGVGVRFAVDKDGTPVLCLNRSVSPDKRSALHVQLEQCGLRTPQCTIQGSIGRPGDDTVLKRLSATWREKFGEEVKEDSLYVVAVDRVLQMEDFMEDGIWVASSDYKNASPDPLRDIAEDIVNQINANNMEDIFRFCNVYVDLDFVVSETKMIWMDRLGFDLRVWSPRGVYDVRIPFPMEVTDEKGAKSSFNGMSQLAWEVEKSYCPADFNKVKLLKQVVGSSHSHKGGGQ
Assay: cross-linking; all three recombinant proteins (GluTR, GBP, GSAAT) mixed together, 1 mM DSSO in PBS, 1 h, room temperature, trypsin, LC-MS/MS, MaxQuant; both purified

binding: binds
Substance: recombinant 6xHis-GSAAT (Arabidopsis thaliana) (enzyme)
